Results reported in PubChem BioAssay AID2517 (National Center for Advancing Translational Sciences (NCATS), 2010).
Values joined by “and” are separate entries in the source; they are usually repeats but may differ in a detail not shown here. Identical values can stand only once. About 1,200 (0.34%) of roughly 350,000 compounds were called active. The inconclusive results got no clear call from the source; some entries with a clear call stand among them for comparison. The call rests on the fitted dose curve; in most records, active means well fitted inhibition curve with a large enough effect; inconclusive means small, poorly fitted or top-dose-only effect; inactive means no such curve, though single readings can be large or run the other way. A potency beside an inconclusive call is a rough fit, not a confirmed value.

By UniProt entry, the sequences of proteins in these tests, tags left out.
UniProt P27695, whole entry, looked up: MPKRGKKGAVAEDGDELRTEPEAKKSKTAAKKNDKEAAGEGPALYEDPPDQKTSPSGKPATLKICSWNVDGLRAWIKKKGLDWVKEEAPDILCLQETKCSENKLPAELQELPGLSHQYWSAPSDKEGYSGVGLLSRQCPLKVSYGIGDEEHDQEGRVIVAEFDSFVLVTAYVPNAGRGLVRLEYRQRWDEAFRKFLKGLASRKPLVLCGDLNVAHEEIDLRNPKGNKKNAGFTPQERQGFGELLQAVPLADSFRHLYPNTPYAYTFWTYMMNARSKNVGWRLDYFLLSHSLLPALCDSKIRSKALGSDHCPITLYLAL

molecular target: DNA repair nuclease/redox regulator APEX1 (Homo sapiens) (UniProt P27695); experiment: qHTS Assay for Inhibitors of the Human Apurinic/apyrimidinic Endonuclease 1 (APE1); conditions: recombinant APE1, TAMRA/BHQ-2 abasic DNA cleavage fluorescence; series mostly up to 65.8 µM; further: nearly all actives have a fitted effect of over 55% in size
Method in brief: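 Endonuclease cleavage of a quenched abasic-site DNA duplex (50 nM) by APE1 (0.75 nM) was tracked by TAMRA dequenching. Compounds were preincubated with enzyme 15 min at room temperature; data normalized to buffer-only and DMSO wells plus NSC13755 control.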
Potency means the concentration at half of the fitted maximal effect.

SMILES | Potency
CCOC(=O)C1CCc2sc(N)c(C#N)c21 (centres undefined) | inconclusive: 28.2 µM [inhibitor, partial curve]
COc1ccccc1OCC(=O)Nc1ccc(N2CCCCC2)cc1 | inconclusive: 35.5 µM [inhibitor, single point]
CN(C)S(=O)(=O)c1cccc(N=c2scc(-c3ccc4c(c3)NC(=O)CO4)n2CC2CCCO2)c1 (centres undefined) | inconclusive: 31.6 µM [inhibitor, single point]
COc1ccc(-n2c(O)c(/C=N/NS(=O)(=O)c3cc(C)ccc3C)c3ccccc3c2=O)cc1OC | inconclusive: 31.6 µM [inhibitor, single point]
Cc1ccccc1NC(=O)CN1C(=O)N/C(=C\c2ccccc2OCc2ccc(C(=O)O)cc2)C1=O | inconclusive: 21.2 µM [inhibitor, partial curve]
O=C(NCCc1ccccc1)c1nnc(CS(=O)(=O)c2ccccc2)o1 | inactive
CCCc1[nH][nH]c(=O)c1C(c1ccc(Br)cc1)C(C#N)C#N (centres undefined) | inconclusive: 0.398 µM [inhibitor, partial curve]
Oc1ccc(F)cc1-c1cc(-c2ccc3c(c2)OCCO3)n[nH]1 | inactive
COc1cc2c(cc1OC)-c1c(OC)c(OC)cc3ccnc(c13)C2=O | inconclusive: 20 µM [inhibitor, partial curve]
CN(C)c1ccc(-c2nc3ccccn3c2/N=C/c2ccc(Br)cc2)cc1 | inactive
CN(C)[C@@H]1C(=O)C(C(N)=O)=C(O)[C@@]2(O)C(=O)C3=C(O)c4c(O)ccc(Cl)c4[C@@H](O)[C@H]3C[C@@H]12 | inconclusive: 15.8 µM [inhibitor, single point] and inconclusive: 28.2 µM [inhibitor, partial curve, poor fit]
COc1ccccc1N1C(=O)S/C(=C\c2cc(C)n(C)c2C)C1=O | inconclusive: 31.6 µM [inhibitor, partial curve]
COc1ccc(OC)c2[nH]c(=O)c(CCNC(=O)C(C)C)cc12 | inconclusive: 44.7 µM [inhibitor, single point]
COc1ccc(C(c2c(C)[nH]n(-c3ccccc3)c2=O)c2c(C)[nH]n(-c3ccccc3)c2=O)cc1OC | inactive
Cn1cccc1CC(=O)N/N=C/c1ccco1 | inconclusive: 39.8 µM [inhibitor, single point]
C=CCc1cccc(/C=N/NC(=O)c2ccccc2Br)c1O | inconclusive: 0.562 µM [inhibitor, partial curve, poor fit]
CC(C)(C)c1ccc(C(=O)O)c(C(=O)c2ccc(C(=O)O)cc2)c1 | inconclusive: 35.5 µM [inhibitor, single point]
CC(O)C#C[Si](C)(C)c1ccccc1 (centres undefined) | inactive
CSc1nc2ccccc2cc1/C=C(\C#N)c1cccc(Cl)c1 | inactive
COc1cccc(OC)c1OCCCN1CCOCC1 | inconclusive: 22.4 µM [inhibitor, single point]
COC(=O)CNC(=O)CNC(=O)c1nn(-c2ccc(OC)c(Cl)c2)c(=O)c2ccccc12 | inconclusive: 44.7 µM [inhibitor, single point]
C/C(CCC(=O)OC[C@@H]1O[C@H](C#Cc2ccccc2)C=C[C@@H]1Oc1ccc(C)cc1)=N/OC[C@@H](O)COCc1ccco1 | inconclusive: 4.47 µM [inhibitor, single point]

SMILES | Potency
C=CCn1c(COc2ccc(Cl)cc2)nnc1SCC(=O)N/N=C/c1cccc(O)c1 | inactive
Cc1ccc(OCC(=O)c2cc(C)n(Cc3ccco3)c2C)c([N+](=O)[O-])n1 | inconclusive: 7.94 µM [inhibitor, single point]
CC1=C(C(=O)OC(C)C)C(c2ccc(F)cc2)NC(=O)N1 (centres undefined) | inactive
Cc1ccc(N=C(NOC(=O)c2ccccc2)c2nonc2N)c(C)c1 | inconclusive: 22.4 µM [inhibitor, single point]
Cc1ccc(/C=N/NC(=O)Cc2ccc(Cl)cc2)c(O)c1 | inconclusive: 11.9 µM [inhibitor, partial curve]
COc1cc(OCC(N)=O)cc(OC)c1OC | inconclusive: 0.0355 µM [inhibitor, full curve, poor fit]
C=CCn1cccc(C(=O)Nc2cc(OC)cc(OC)c2)c1=O | inconclusive: 39.8 µM [inhibitor, single point]
O=C(Cc1ccc(-n2cccc2)cc1)NCc1cccs1 | inconclusive: 44.7 µM [inhibitor, single point]
CC1=C(C(=O)Nc2nc3ccccc3s2)C(c2ccco2)C(C#N)=C(SCC(=O)NC2CCCCC2)N1 (centres undefined) | inconclusive: 11.2 µM [inhibitor, partial curve, poor fit]
COc1ccc(CN(C)CC(=O)Nc2ccc(SC(F)F)cc2)cc1OC | inconclusive: 3.55 µM [inhibitor, partial curve]
Cc1ccc(SCc2cc(=O)c3c(=O)n(-c4ccccc4)[nH]c3[nH]2)cc1 | inconclusive: 31.6 µM [inhibitor, single point]
CC1CC(C)CN(c2ccc([N+](=O)[O-])nc2)C1 (centres undefined) | inconclusive: 20 µM [inhibitor, single point]
O=C1CCC([N+](=O)[O-])C(c2cccc([N+](=O)[O-])c2)N1 (centres undefined) | active: 0.112 µM
O=C1CCCN1CCNC(=S)Nc1ccccc1 | inconclusive: 39.8 µM [inhibitor, single point]
O=C(CSc1nnc(Nc2ccccc2F)s1)NC(=O)CN1CCCC1=O | active: 10.6 µM
Cc1cc(C)c(S(=O)(=O)n2c([N+](=O)[O-])cnc2C)c(C)c1 | inconclusive: 8.91 µM [inhibitor, single point]
Cc1cccc(Nc2nc(N)c([N+](=O)[O-])c(NCCO)n2)c1 | inactive
N[C@@H](Cc1cc(-c2ccc(Cl)cc2Cl)cc(CP(=O)(O)O)c1O)C(=O)O | inactive
O=C(/C=C/c1ccc2c(c1)OCO2)c1ccccn1 | inconclusive: 44.7 µM [inhibitor, single point]
COc1cc2[nH]c3ccccc3c2cc1C | inconclusive: 6.31 µM [inhibitor, single point]
CC(C)(C)NS(=O)(=O)c1cc(C(=O)Nc2sccc2C#N)ccc1Cl | inconclusive: 12.6 µM [inhibitor, partial curve]
O=C(Nc1ccccc1Cl)c1ccc2nccnc2c1 | inactive

SMILES | Potency
CC(C)(C)OC(=O)C[C@@H]1C/C=C\C[C@@H](CC(=O)N(CCO)Cc2ccccc2)C(=O)N[C@H](C(C)(C)C)COC1=O | active: 11.9 µM
CCCCC1C2C(=O)N(c3ccccc3)C(=O)C2ON1c1ccccc1 (centres undefined) | inconclusive: 5.01 µM [inhibitor, single point]
Cc1cccc(C)c1NC(=S)N(CCc1ccncc1)C(C)C | inconclusive: 25.1 µM [inhibitor, single point]
CCOC(=O)c1ccc(NC(=O)CCc2nc(-c3ccc(C)cc3)no2)cc1 | inconclusive: 10 µM [inhibitor, partial curve]
O=C(CSc1ccc(Cl)cc1)Nc1nnc(-c2cccc([N+](=O)[O-])c2)s1 | inconclusive: 3.16 µM [inhibitor, partial curve]
COc1ccccc1NS(=O)(=O)c1ccc(O)c(C(=O)OCc2cccc([N+](=O)[O-])c2)c1 | inconclusive: 14.1 µM [inhibitor, partial curve, poor fit]
Cn1c(C(O)c2ccc3c(c2)OCO3)nc2ccccc21 (centres undefined) | inconclusive: 0.251 µM [inhibitor, single point]
Cc1ccc(OCC(=O)N/N=C/c2ccncc2)cc1C | inconclusive: 3.16 µM [inhibitor, single point]
COc1cc(/C=C(\C#N)c2nc3ccccc3[nH]2)cc(OC)c1O | inconclusive: 22.4 µM [inhibitor, partial curve]
O=[N+]([O-])c1ccc(Nc2nc(N/N=C\c3ccc4c(c3)OCO4)nc(N3CCCCC3)n2)cc1 | inconclusive: 3.16 µM [inhibitor, partial curve]
Cc1ccc(N2C(=O)/C(=C/c3ccco3)SC2=S)cc1 | inconclusive: 31.6 µM [inhibitor, single point]
COc1cccc(/C=N/NC(=O)Cn2nc(C)c([N+](=O)[O-])c2C)c1O | inactive
COc1cc2c(cc1NC(=O)CSc1nc3ccccc3[nH]1)oc1ccccc12 | inconclusive: 35.5 µM [inhibitor, single point]
O=C(/C=C/c1ccccc1)NCCc1ccccc1 | active: 7.94 µM
NS(=O)(=O)c1ccc(-n2nc(C(=O)O)cc2-c2ccc(Cl)cc2)cc1 | inconclusive: 10 µM [inhibitor, single point]
CCCCN(C)C(=O)CS(=O)(=O)Cc1nc(-c2cccc(OC)c2)oc1C | inconclusive: 31.6 µM [inhibitor, single point]
COC(=O)[C@@H]1CC[C@H](C)[C@@H](c2ccc(C)cc2)N1C(=O)c1ccc(/C=N\OC[C@@H]2O[C@H](c3ccccc3)C=C[C@@H]2Oc2ccc(OC)cc2)cc1 | inconclusive: 4.47 µM [inhibitor, single point]
COc1ccc(OC)c(-n2c(=S)[nH]c3cc(C(=O)N4CCN(c5ccccc5)CC4)ccc3c2=O)c1 | inconclusive: 7.94 µM [inhibitor, single point]
CC(C)(C(=O)Nc1nccs1)c1ccccc1 | inconclusive: 3.16 µM [inhibitor, single point]
Cc1c(Br)ccc(NC(=O)COc2ccccc2C(N)=O)c1C | inconclusive: 39.8 µM [inhibitor, single point]
